The values that follow come from patent publication US20050037394.

Series [1] concerns IgE (Homo sapiens). Put plainly: filter binding. The conditions noted are these: 2'-OMe C,U; 2'-OH A,G (cDNA printed, T=U); dominant clone; three other clones bound to a higher extent; purified native protein.
For series [2], the system named is VEGF. Put plainly: filter binding. The conditions noted are these: purified recombinant protein, letters built from the parent sequence and the stated change.

For part of these data: Weaker means in comparison with the reference protein, sequence or condition of that experiment. The exact form of at least one protein or probe is not confirmed.

Regarding “GGGAGAGGAGAGAACGUUCUACGAUCUGGGCGAGCCAGUCUGACUGAGGAAGCGCUGUCGAUCGAUCGAUCGAUGAAGGGCG [AMX(123).A1]”, the binding result in series [1] is listed as “binds”. Take CGAUAUGCAGUUUGAGAAGUCGCGCAUUCG [ARC225]: in series [2] (2'-OMe except 2'-OH at positions 7,10,14,16,19,22,24, 3'-inverted dT [2'-OMe at all except 2'-OH at 7,10,14,16,19,22,24, 3'-inverted dT after nt 30 (not written in sequence)], weaker than fully 2'-OMe ARC224, dot-blot in PBS, variant of ARC224), the binding result is “binds more weakly”. Turning to GAUCAUGCAUGUGGAUCGCGGAUC [ARC226], the binding result in series [2] (2'-OMe except single 2'-OH G, 3'-inverted dT [2'-OMe at all except 2'-OH G at 11, 3'-inverted dT after nt 24 (not written in sequence)], VEGF aptamer motif common to all 2'-OMe selections) is recorded as “binds”.
